Assay results as given in the supplement of paper PMC10735217.
Counter-ions that a name gives are not always drawn. Some of the results follow. Single values are uncertain here, since repeats match poorly.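 Human kidney-derived cells stably carry a construct in which eight TEAD-binding elements drive luciferase, measured by luminescence in a drug-repurposing library screen. A hit is any compound whose signal exceeds the plate mean by more than five robust Z scores.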

Test system: HEK293A TEAD-LUC reporter
Assay: TEAD-luciferase reporter activity (YAP activation), robust Z score vs plate; higher = stronger YAP/TEAD activation
Details: 24 h

| SMILES | TEAD-luciferase reporter activity (compound concentration: 200 nM) | TEAD-luciferase reporter activity (compound concentration: 2 uM) | TEAD-luciferase reporter activity (compound concentration: 10 uM) |
| --- | --- | --- | --- |
| COCC(=O)Nc1ccc(/N=C(\C)N(C)C)cc1 | inactive: -0.878 | inactive: 0.634 | inactive: 0.816 |
| C#CC(N)CCC(C)N (centres undefined) | inactive: -0.402 | inactive: -1.17 | inactive: -0.0698 |
| CC(C)(CO)[C@@H](O)C(=O)NCCC(=O)NCCSc1c2c(c3ccccc3c1O)NC(=O)CS2 | inactive: -0.915 | inactive: 1.06 | inactive: 1.22 |
| O=C1c2cc(-c3ccc(OC(F)(F)F)cc3)ccc2OCCN1Cc1ncccn1 [Eleclazine] | inactive: -1.3 | inactive: -0.261 | inactive: -0.199 |
| CC(C)COC(=O)C1(F)C(=O)NC(=O)NC1O/N=C/c1ccco1 (centres undefined) | inactive: 1.73 | inactive: -1.28 | inactive: -1.24 |
| CC(=O)N1CCC(=C2c3ccc(Cl)cc3CCc3cccnc32)CC1 | inactive: -2.09 | inactive: -0.143 | inactive: -0.0382 |
| COc1ccc(S(=O)(=O)N2c3ccc(Cl)cc3[C@](O)(c3ccccc3Cl)[C@@H]2C(=O)N2CCC[C@H]2C(N)=O)cc1OC [Relcovaptan] | inactive: 0.373 | inactive: -0.846 | inactive: -2.4 |
| Cc1ccccc1C(=O)Nc1ccc(C(=O)N2CCCC(O)c3cc(Cl)ccc32)c(C)c1 (centres undefined) [tolvaptan] | inactive: -0.542 | inactive: -2.7 | inactive: -3.13 |
| CCCCOC(=O)CC(c1ccccc1)N1CCCCC1 (centres undefined) | inactive: -0.737 | inactive: 0.197 | inactive: 0.441 |
| O=C(O[C@@H]1C[C@@H]2C[C@@H]3C[C@H](C1)N2CC3=O)c1c[nH]c2ccccc12 [dolasetron mesilate] |  | inactive: -1.19 |  |
| O=C(O[C@@H]1C[C@@H]2C[C@@H]3C[C@H](C1)N2CC3=O)c1c[nH]c2ccccc12 | inactive: -0.236 |  | inactive: 1.46 |
| COc1ccc(C2(c3ccccc3)NC(=O)N(CCCN3CCC(c4ccccc4)CC3)C2=O)cc1 (centres undefined) | inactive: -0.392 | inactive: -0.903 | inactive: -0.448 |
| COc1ccc(S(=O)(=O)Nc2cccnc2Nc2ccc(O)cc2)cc1 | inactive: 2.44 | inactive: -0.58 | inactive: -0.18 |
| CC(N)C(=O)OC(C)(C)Cc1ccc(Cl)cc1 (centres undefined) | inactive: -2.89 | inactive: -0.613 | inactive: -1.35 |
| O=C(c1ccc(F)cc1)N1CCCC(C(=O)N2CCC(N3CCCC3=O)CC2)C1 (centres undefined) | inactive: 1.32 |  | inactive: 4.04 |
| CC(C)(N)[C@H](NC(=O)c1ccc(C#CC#C[C@@H]2C[C@H]2CO)cc1)C(=O)NO | inactive: 0.308 | inactive: -0.277 | inactive: -0.429 |
| CCCC(CCC)C(=O)O [magnesium valproate hydrate] |  | inactive: -0.885 |  |
| CCCC(CCC)C(=O)O | inactive: 4.9 |  | inactive: -2.16 |
| CCOc1cc2cc(C(=O)O)sc2cc1OCC | inactive: -1.58 | inactive: -0.0511 | inactive: -0.58 |
| Nc1ccc(OCCCCCN2C(=O)c3ccccc3C2=O)cc1 | inactive: -0.66 | inactive: 0.891 | inactive: -0.594 |

| SMILES | TEAD-luciferase reporter activity (compound concentration: 200 nM) | TEAD-luciferase reporter activity (compound concentration: 2 uM) | TEAD-luciferase reporter activity (compound concentration: 10 uM) |
| --- | --- | --- | --- |
| NS(=O)(=O)c1ccc(N2CCN(CC[C@@H]3OCCc4ccccc43)CC2)cc1 [Sonepiprazole mesilate] | inactive: -1.57 | inactive: -0.344 | inactive: 0.065 |
| COc1nc2ccc(Br)cc2cc1[C@@H](c1ccccc1)[C@@](O)(CCN(C)C)c1cccc2ccccc12 [Bedaquiline] | inactive: -0.989 | inactive: -1.55 | inactive: 2.44 |
| C[C@H](NC(=O)c1ccc(C(=N)N)cc1)C(=O)N1CCC(OCC(=O)O)CC1 | inactive: 0.551 | inactive: -0.951 | inactive: -1.64 |
| CCCCCCCCC(O)C(O)CCCCCCCC(=O)O (centres undefined) [Contracyn] | inactive: -0.487 | inactive: 1.11 | inactive: 2.27 |
| CO/C=C(/C(=O)OC)c1ccc(Cl)cc1COc1ccc(OCCOC)cc1 | inactive: -0.312 | inactive: -1.05 | inactive: 1.1 |
| COCCNC(=O)Cn1cnc([N+](=O)[O-])n1 | inactive: 0.685 | inactive: -0.459 | inactive: -0.314 |
| Cc1c(N=C2NCCN2)ccc2c1NCCO2 | inactive: -0.93 | inactive: -1.67 | inactive: 2.51 |
| Nc1cc(N2CCCCC2)nc(N)[n+]1[O-] | inactive: -1.41 | inactive: 0.00296 | inactive: -0.506 |
| NC(N)=NC(=O)c1cnn(-c2cccc3ncccc23)c1C1CC1 [Zoniporide hydrochloride] | inactive: 0.21 | inactive: 0.104 | inactive: 2.42 |
| CN1CCC(c2cn(C)c3ccc(OS(=O)(=O)c4c(F)cccc4F)cc23)CC1 | inactive: -1.19 | inactive: -1.09 | inactive: -0.645 |
| CC(C)c1csc(COc2cccc(CN(CCCCNS(=O)(=O)c3ccc(Cl)cc3)S(=O)(=O)c3ccccc3C(=O)O)c2)n1 | inactive: 1.17 | inactive: -0.101 | inactive: -0.0747 |
| Cc1nnc(C(CCN2CC3CCC2CC3)(c2ccccc2)c2ccccc2)o1 [nufenoxole] | inactive: -0.958 | inactive: -0.577 | inactive: -0.115 |
| CC1=C[C@H](O)CC(C)(C)[C@H]1/C=C/C(C)=C/C=C/C(C)=C/C=C/C=C(C)/C=C/C=C(C)/C=C/C1=C(C)C[C@@H](O)CC1(C)C [Lutein] | inactive: -1.35 | inactive: -0.87 | inactive: 0.708 |
| CCN(CC)CC[n+]1ccc2c(C)c3[nH]c4ccc(O)cc4c3c(C)c2c1 | inactive: -2.14 | inactive: 1.81 | inactive: 0.736 |
| COc1ccc(C2=NN(Cc3cccc(NC(=O)OCCCN(C)C)c3)C(=O)SC2)cc1OC | inactive: -1.01 | inactive: -1.51 | inactive: -0.257 |
| O=C(O)C1CCN(c2nc(NCc3ccc4c(c3)OCO4)c3cc(Cl)ccc3n2)CC1 | inactive: -0.107 | inactive: -1.78 | inactive: 0.0344 |
| C=CCN(C(=O)OCc1ccc([N+](=O)[O-])cc1)C1CCN(C[C@H]2CN(C(=O)C3CCCC3)C[C@]2(O)c2ccccc2)CC1 | inactive: -1.11 | inactive: 0.0753 | inactive: 3.01 |
| CCOc1cnccc1-c1nc2c(c(CC)nn2C2CCCC2)c(=O)[nH]1 | inactive: -0.883 | inactive: 0.946 | inactive: 0.000314 |
| COc1cc2c(cc1OC)C(=O)C(CC1CCN(Cc3ccccc3)CC1)C2 (centres undefined) [Donepezil] | inactive: -1.95 |  | inactive: -1.09 |
| COc1cc2c(cc1OC)C(=O)C(CC1CCN(Cc3ccccc3)CC1)C2 (centres undefined) [Anavex Plus] |  | inactive: -0.88 |  |

No new results follow: entries from further up.

| SMILES | TEAD-luciferase reporter activity (compound concentration: 200 nM) | TEAD-luciferase reporter activity (compound concentration: 2 uM) | TEAD-luciferase reporter activity (compound concentration: 10 uM) |
| --- | --- | --- | --- |
| CCOc1cnccc1-c1nc2c(c(CC)nn2C2CCCC2)c(=O)[nH]1 | inactive: -0.883 | inactive: 0.946 | inactive: 0.000314 |
| COc1cc2c(cc1OC)C(=O)C(CC1CCN(Cc3ccccc3)CC1)C2 (centres undefined) [Donepezil] | inactive: -1.95 |  | inactive: -1.09 |
| COc1cc2c(cc1OC)C(=O)C(CC1CCN(Cc3ccccc3)CC1)C2 (centres undefined) [Anavex Plus] |  | inactive: -0.88 |  |

(listing goes on)

| SMILES | TEAD-luciferase reporter activity (compound concentration: 200 nM) | TEAD-luciferase reporter activity (compound concentration: 2 uM) | TEAD-luciferase reporter activity (compound concentration: 10 uM) |
| --- | --- | --- | --- |
| C[C@@H](Oc1cc(-n2cnc3ccc(CN4CCN(C)CC4)cc32)sc1C(N)=O)c1ccccc1C(F)(F)F | inactive: -1.54 | inactive: -0.889 | inactive: -1.39 |
| CNc1ccc(CN2CCC(OC(=O)NC(c3ccccc3)c3ccccc3)CC2)cc1 | inactive: -1.17 | inactive: -1.54 | inactive: 2.24 |
| O=C(O)[C@H]1C[C@@H](CP(=O)(O)O)CCN1 | inactive: -1.58 |  | inactive: 0.772 |
| O=C(O)c1ccc(/C=C2\SC(=S)N(c3cccc(C(F)(F)F)c3)C2=O)cc1 | inactive: -0.0417 | inactive: -1.77 | inactive: 2.45 |
| CCCCCCCCCCCCCCOc1ccc(C(=O)OCC(=O)N(C)CC(=O)OCC)o1 [Olumacostat glasaretil] | inactive: -1.89 | inactive: 0.266 | inactive: 1.35 |
| CCCCCCCCCCCC(N=O)c1cc(C)ccc1O (centres undefined) | inactive: -0.87 | inactive: 3.03 | inactive: -1.93 |
| O=C(Nc1nc(=O)n(Cc2ccc(Cl)cc2)s1)c1ccc(Cl)cc1 | inactive: 0.047 |  | inactive: -0.483 |
| NC(=O)NCCCC(N)C(=O)O [L-citrulline, Asklepion] | inactive: 0.229 |  | inactive: 0.781 |
| O=C(CN1N=C(C2CCCCC2)c2ccccc2N(CC(=O)C2CCCC2)C1=O)Nc1cccc(-c2nc(=O)o[nH]2)c1 | inactive: -0.903 | inactive: 0.625 | inactive: 0.255 |
| CC(C)CCN1CCC2(CC1)NCc1ccccc1NC2=O | inactive: -0.1 |  | inactive: 0.369 |
| Cc1cc(Oc2c(C3CC3)nn(CS(C)(=O)=O)c2C)cc(C)c1C#N | inactive: -0.0377 | inactive: 0.185 | inactive: -0.662 |
| CC(C)n1nc(-c2ccc3oc(N)nc3c2)c2c(N)ncnc21 | inactive: -0.508 |  | inactive: -1.85 |
| CC(C)n1nc(-c2ccc3oc(N)nc3c2)c2c(N)ncnc21 [Sapanisertib] |  | inactive: -1.96 |  |
| CCCCOCCOc1ccc(-c2ccc3c(c2)C=C(C(=O)Nc2ccc([S@@+]([O-])Cc4cncn4CCC)cc2)CCCN3CC(C)C)cc1 [Cenicriviroc mesilate] | inactive: 0.194 | inactive: -0.271 | inactive: 2.19 |
| N[C@H](C(=O)O)[C@H](O)c1ccc(O)c(O)c1 [droxidopa] |  | inactive: -2.88 |  |
| N[C@H](C(=O)O)[C@H](O)c1ccc(O)c(O)c1 | inactive: 0.86 |  | inactive: -1.32 |
| CC1(C)Cc2c(-c3ccccc3)c(-c3ccc(Cl)cc3)c(CC(=O)O)n2C1 [licofelone] | inactive: -1.47 | inactive: -0.534 | inactive: 3.31 |
| CN(C)/N=N/c1[nH]cnc1C(N)=O [Dacarbazine] | inactive: -0.00391 | inactive: -2.37 | inactive: -0.367 |
